Results on 1 sequence are retold here after patent publication US20240294926.

The chains behind the UniProt entries cited, without tags or fusion partners. Residues count along the entry.
UniProt P09874, 2-1014: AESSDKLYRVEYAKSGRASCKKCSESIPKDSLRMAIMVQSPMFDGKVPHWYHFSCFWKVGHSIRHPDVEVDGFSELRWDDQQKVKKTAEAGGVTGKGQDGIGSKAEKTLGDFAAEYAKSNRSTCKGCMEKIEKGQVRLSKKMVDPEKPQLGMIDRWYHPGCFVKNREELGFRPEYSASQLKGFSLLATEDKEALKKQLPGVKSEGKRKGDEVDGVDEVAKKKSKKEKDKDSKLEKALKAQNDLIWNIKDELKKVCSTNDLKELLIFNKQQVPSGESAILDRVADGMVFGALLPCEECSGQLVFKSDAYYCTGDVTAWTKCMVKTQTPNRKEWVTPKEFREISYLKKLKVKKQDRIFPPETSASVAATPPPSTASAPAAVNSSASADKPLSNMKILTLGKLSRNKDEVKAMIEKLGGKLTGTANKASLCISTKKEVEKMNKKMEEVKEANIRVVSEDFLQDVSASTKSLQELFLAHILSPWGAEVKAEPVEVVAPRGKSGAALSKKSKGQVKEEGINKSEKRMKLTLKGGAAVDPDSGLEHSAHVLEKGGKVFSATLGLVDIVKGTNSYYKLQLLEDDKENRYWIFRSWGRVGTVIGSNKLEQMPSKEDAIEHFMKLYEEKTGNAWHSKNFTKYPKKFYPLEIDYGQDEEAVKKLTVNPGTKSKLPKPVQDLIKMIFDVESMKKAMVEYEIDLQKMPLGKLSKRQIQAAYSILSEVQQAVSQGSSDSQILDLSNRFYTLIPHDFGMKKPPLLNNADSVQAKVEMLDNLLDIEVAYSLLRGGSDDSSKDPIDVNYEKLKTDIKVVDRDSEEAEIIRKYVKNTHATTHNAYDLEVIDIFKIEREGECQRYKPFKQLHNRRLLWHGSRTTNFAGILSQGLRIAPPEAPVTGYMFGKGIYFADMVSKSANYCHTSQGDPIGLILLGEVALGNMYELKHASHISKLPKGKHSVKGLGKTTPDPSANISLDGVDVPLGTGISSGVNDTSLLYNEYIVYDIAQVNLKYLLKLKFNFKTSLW

In the data set the target is PARP-1 (poly-[ADP-ribose] polymerase 1) (Homo sapiens) (UniProt P09874). As to the kind of experiment: SPR. As to conditions: FANA (2'-deoxy-2'-fluoroarabino) nucleotides and PS linkages (positions only in images), cholesterol-conjugated, HEG loop, purified recombinant protein, protein details: His-tag, Thermofisher.

Construct, isoform or probe ends are uncertain for at least one entry.

“CCCAGCAAACAAGCCT (double strand) [OX413]”: the Kd came to 45 nM (first of two listed components, kon 3.7e4 M-1s-1, koff 1.7e-3 s-1, folded or branched DNA) and 85 nM (second of two listed components, kon 4.7e3 M-1s-1, koff 3.9e-4 s-1, folded or branched …).

As a reminder, the Kd is the free concentration of one partner at which half of the binding sites on the other are occupied at equilibrium, for simple one-to-one binding.
